In article PMC11442835:
Results are given in words; binding and its absence hold for the method and conditions named. In cells and extracts the contact can be indirect. Here binding means that the protein was enriched with, or labelled near, the bait; the list need not be complete.

Amino acid sequences for entries named in this document (tags omitted).
UniProt O94972: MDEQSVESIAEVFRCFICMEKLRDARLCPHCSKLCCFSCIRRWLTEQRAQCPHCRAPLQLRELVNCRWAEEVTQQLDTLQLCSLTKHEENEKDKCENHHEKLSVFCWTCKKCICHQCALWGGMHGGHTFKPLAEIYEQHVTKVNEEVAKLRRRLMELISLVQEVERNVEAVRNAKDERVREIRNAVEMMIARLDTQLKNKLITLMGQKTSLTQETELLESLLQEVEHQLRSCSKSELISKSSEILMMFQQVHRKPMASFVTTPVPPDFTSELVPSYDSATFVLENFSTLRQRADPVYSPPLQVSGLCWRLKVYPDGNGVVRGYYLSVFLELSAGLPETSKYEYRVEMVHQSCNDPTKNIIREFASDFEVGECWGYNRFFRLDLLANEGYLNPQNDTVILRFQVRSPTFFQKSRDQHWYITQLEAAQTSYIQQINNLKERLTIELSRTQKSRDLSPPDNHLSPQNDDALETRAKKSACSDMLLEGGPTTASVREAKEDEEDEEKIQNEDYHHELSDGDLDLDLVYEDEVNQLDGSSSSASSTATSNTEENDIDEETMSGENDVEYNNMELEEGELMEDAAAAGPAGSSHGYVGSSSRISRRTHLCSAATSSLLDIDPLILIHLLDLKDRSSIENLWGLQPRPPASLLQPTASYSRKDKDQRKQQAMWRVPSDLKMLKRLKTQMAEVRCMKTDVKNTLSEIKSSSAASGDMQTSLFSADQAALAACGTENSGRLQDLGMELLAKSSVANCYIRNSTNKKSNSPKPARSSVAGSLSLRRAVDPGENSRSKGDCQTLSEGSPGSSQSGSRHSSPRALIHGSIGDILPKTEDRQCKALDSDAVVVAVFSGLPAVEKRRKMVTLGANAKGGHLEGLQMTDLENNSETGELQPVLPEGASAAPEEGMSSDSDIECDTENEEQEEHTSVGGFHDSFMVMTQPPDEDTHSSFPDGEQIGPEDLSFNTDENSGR
UniProt Q8TAQ2: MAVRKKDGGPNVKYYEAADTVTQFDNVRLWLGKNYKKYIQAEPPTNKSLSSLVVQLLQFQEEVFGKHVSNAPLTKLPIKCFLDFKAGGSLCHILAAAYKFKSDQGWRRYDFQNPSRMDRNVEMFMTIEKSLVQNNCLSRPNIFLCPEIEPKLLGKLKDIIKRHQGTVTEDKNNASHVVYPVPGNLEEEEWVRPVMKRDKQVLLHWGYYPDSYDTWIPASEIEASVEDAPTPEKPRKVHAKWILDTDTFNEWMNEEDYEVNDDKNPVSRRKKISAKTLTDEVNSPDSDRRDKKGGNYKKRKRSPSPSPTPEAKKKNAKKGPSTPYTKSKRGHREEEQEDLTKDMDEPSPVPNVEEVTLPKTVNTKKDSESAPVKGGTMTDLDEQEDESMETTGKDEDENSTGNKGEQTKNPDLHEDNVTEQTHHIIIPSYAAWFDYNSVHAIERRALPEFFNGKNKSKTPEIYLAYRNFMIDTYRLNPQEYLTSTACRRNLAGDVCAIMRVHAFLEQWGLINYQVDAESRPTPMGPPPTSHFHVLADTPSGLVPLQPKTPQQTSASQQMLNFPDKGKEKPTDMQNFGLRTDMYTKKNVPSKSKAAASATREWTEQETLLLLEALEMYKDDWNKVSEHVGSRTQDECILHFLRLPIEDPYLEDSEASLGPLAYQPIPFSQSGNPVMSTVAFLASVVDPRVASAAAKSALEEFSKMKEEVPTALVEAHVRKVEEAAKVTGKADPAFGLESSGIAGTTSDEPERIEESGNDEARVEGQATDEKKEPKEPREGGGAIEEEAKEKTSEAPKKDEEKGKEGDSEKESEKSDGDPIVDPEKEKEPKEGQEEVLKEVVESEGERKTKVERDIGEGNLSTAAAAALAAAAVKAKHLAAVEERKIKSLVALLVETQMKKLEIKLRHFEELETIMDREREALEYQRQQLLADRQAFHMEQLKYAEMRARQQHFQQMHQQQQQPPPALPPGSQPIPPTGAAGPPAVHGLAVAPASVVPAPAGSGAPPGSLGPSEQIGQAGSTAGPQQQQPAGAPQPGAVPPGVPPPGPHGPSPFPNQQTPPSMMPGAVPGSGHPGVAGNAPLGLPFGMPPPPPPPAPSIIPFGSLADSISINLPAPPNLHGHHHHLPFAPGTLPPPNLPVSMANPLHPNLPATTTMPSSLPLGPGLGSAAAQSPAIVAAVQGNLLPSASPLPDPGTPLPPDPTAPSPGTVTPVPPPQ

Target: Tripartite motif-containing 37 (TRIM37) (human (RCC cell lines; the cell line of the Co-IP is not stated)) (UniProt O94972)
Assay: affinity purification with mass spectrometry; Co-IP from fresh cell protein with antibody on protein A/G magnetic beads (antibody and beads at 4 °C overnight), IP buffer washes, eluted proteins analysed by mass spectrometry

## SMARCC2 (from UniProt Q8TAQ2 1-1214)
  binding: binds
